As a reminder, the AC50 is the midpoint of the concentration-response curve, whichever way the signal moves.

The source of these data is PubChem BioAssay AID493014 (National Center for Advancing Translational Sciences (NCATS), 2011).

The structures appear in SMILES notation. Some of the results follow. Shown are side measurements of this screen, not its main read-out; they come without a call. Compounds called inactive in the main read-out are mostly missing here. Words in brackets tell the shape of the fitted curve; partial curves, single points and poor fits give uncertain potencies.

A short description of the experiment: qHTS Assay to Find Inhibitors of Chronic Active B-Cell Receptor Signaling. The note with it: ABC-DLBCL IkBa-CBG/CBR reporter, luminescence ratio (green luciferase fused to IkBa over red control in TMD8 lymphoma cells), 4 h. An outline of the steps: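 TMD8 ABC-DLBCL cells carrying doxycycline-inducible green luciferase fused to IkappaBalpha plus unfused red luciferase were exposed to compounds (up to 46 uM) for 4 hrs at 37C. Activity came from the overlap-corrected green/red luminescence ratio.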
In general terms: qHTS replaces the single test concentration by a dilution series.

[1] abbreviates: measured here: CBR red luminescence, cell number.
Where [2] appears, read: measured here: IkBa-CBG green luminescence.

Turning to `COc1ccc(-c2occ(C(=O)O)c2C(=O)O)cc1`, the concentration at half-maximal activity (AC50) under setting [1] is 13 µM [falling, partial curve, poor fit].

Take `Cn1cc(S(=O)(=O)N2CCCC2)cc1C(=O)N1CCN(c2ccccc2)CC1`: the AC50 under setting [1] was 14.1 µM [rising, single point].

Turning to `Cc1nnc(N/N=C/c2ccc([N+](=O)[O-])cc2)n1N`, the AC50 under setting [1] is 35.5 µM [rising, single point].

Take `CCC(CO)n1c(SCc2cc([N+](=O)[O-])cc3c2OCOC3)nc2ccccc2c1=O` (stereo unspecified): under setting [1], the AC50 is 23.1 µM [falling, single point].

Consider `C(=C/c1nccc2c1[nH]c1ccccc12)/c1ccc2c(c1)OCO2`, for which, under setting [1], the AC50 was 17.8 µM [falling, single point].

On to `Cc1ccc(-c2c(C(=O)N/N=C/c3cccc(Cl)c3)nnn2-c2nonc2N)cc1`, for which, under setting [1], the AC50 was 10 µM [rising, partial curve, poor fit].

In the case of `O=C(NCCNC(=O)c1cc(OCC(F)(F)F)ccc1OCC(F)(F)F)Nc1cccc(C(F)(F)F)c1`, the half-maximal activity concentration (AC50) under setting [1] is 35.5 µM [falling, single point].

For the molecule `O=C(CNC(=S)N(CCCN1CCOCC1)Cc1cccs1)N1CCCCCC1`, the AC50 under setting [1] is 0.794 µM [rising, full curve, poor fit].

`C=CCn1c(SCC(=O)Nc2cccc(C(=O)OC)c2)nnc1C(C)NC(=O)c1cccs1` (stereo unspecified): the AC50 under setting [1] is 9.2 µM [falling, partial curve].

Regarding `CCN(CC)C(=O)C1CCCN(C(=S)Nc2cccc3ccccc23)C1` (stereo unspecified), the AC50 under setting [1] is 25.9 µM [falling, single point].

In the case of `CC(Oc1ccc(Cl)cc1)C(=O)Nc1cccc(S(=O)(=O)N2CCOCC2)c1` (stereo unspecified), the concentration at half-maximal activity (AC50) under setting [1] is 0.13 µM [rising, full curve, poor fit].

As for `COc1ccc(N2CCN(C(=O)c3cc4ccccc4o3)CC2)cc1`, under setting [1], the AC50 was 3.16 µM [rising, single point].

As for `Nc1nc2ccccc2n1C(=O)c1cccs1`, the AC50 under setting [1] was 1.78 µM [falling, full curve].

On to `O=C(NN=C1CCCCCC1)c1cccs1`, for which, under setting [1], the AC50 was 20 µM [falling, single point].

In the case of `N#CCCCN1C(=O)C(=C(C#N)C#N)c2ccccc21`, the AC50 under setting [1] was 35.5 µM [falling, single point].

Regarding `Nc1nc(-c2cccnc2)nn1C(=O)c1ccccc1Cl`, the AC50 under setting [1] is 10 µM [falling, partial curve, poor fit].

Take `O=c1oc(Nc2ccc(F)cc2)nc2ccccc12`: under setting [1], the AC50 was 2.24 µM [falling, full curve, poor fit].

Take `O=S(=O)(NCC(c1cccs1)S(=O)(=O)c1ccccc1)c1ccccc1` (stereo unspecified): the AC50 under setting [1] is 3.55 µM [falling, partial curve].

For the molecule `CC(OC(=O)c1cc2sccc2n1C)C(=O)NCc1ccc(F)cc1` (stereo unspecified), the AC50 under setting [1] is 5.17 µM [rising, partial curve, poor fit].

For the molecule `CC(C)(C)c1cc(NC(=O)CSc2nnc(NCc3ccccc3)s2)n(-c2ccccc2)n1`, the concentration at half-maximal activity (AC50) under setting [1] was 14.6 µM [falling, single point].

`CC1CCc2c(sc(NC(=S)NC(=O)c3ccccc3)c2C#N)C1` (stereo unspecified): the AC50 under setting [1] is 6.31 µM [rising, single point].

With `CCCOc1c(OC)cccc1C1CC(=O)Nc2cc3c(cc21)OCCO3` (stereo unspecified), the AC50 was 11.2 µM [rising, partial curve] under setting [1] and 35.5 µM [falling, single point] under setting [2].

With `CCO[C@H]1OC(C(=O)NCc2nc3ccccc3[nH]2)=C[C@@H](c2ccc(C(F)(F)F)cc2)[C@@H]1CCCO`, under setting [1], the AC50 was 35.5 µM [falling, single point].

On to `COc1ccc(OC)c(C(=O)N2CCC(n3nccc3NC(=O)CC(C)C)CC2)c1`, for which, under setting [1], the AC50 was 35.5 µM [rising, single point].

As for `Cc1ccc2nc(-c3cccnc3)c(NC3CCCCC3)n2c1`, under setting [1], the AC50 is 10.3 µM [falling, partial curve, poor fit].

As to `O=C(CCc1ccccc1)Nc1cccc(NC(=O)CCc2ccccc2)c1`, under setting [1], the concentration at half-maximal activity (AC50) is 1.64 µM [falling, full curve].

`c1ccc(OCCOCCSc2ncccn2)cc1`: the half-maximal activity concentration (AC50) under setting [1] was 11.2 µM [falling, partial curve].

Turning to `Cc1c(NC(=O)CN2C(=O)NC(C)(c3ccccc3)C2=O)c(=O)n(-c2ccccc2)n1C` (stereo unspecified), the AC50 under setting [1] is 0.231 µM [rising, partial curve].

`Cc1cnc(C(=O)OC(C)C(=O)Nc2ccc3c(c2)OCCO3)cn1` (stereo unspecified): the AC50 under setting [1] is 0.794 µM [falling, full curve].

For `O=C(Nc1cccc(Cl)c1)N1CC2CCCN2c2ccccc21` (stereo unspecified), under setting [1], the AC50 is 11.2 µM [rising, single point].

On to `CC1(C)CC(=O)C2=C(C1)N(c1ccc(F)cc1)C(N)=C(C#N)C2c1cccs1` (stereo unspecified), for which the AC50 under setting [1] was 3.16 µM [falling, full curve, poor fit].

With `CC(C)CNC(=O)C1CCN(Cc2ccc(OCc3ccccc3)cc2)CC1`, the half-maximal activity concentration (AC50) under setting [1] is 4.61 µM [rising, single point].

In the case of `COc1ccc(N2CC(C(=O)OCC(=O)Nc3cccc(C)c3C)CC2=O)cc1` (stereo unspecified), under setting [1], the AC50 is 35.5 µM [rising, partial curve, poor fit].

`CN(C)CCCN(C(=O)c1ccc(S(=O)(=O)N2CCCC2)cc1)c1nc2ccc(Br)cc2s1`: the half-maximal activity concentration (AC50) under setting [1] was 35.5 µM [falling, single point].

With `CCOC(=O)C1=C(CC)Nc2ccccc2N=C1NC(=O)Nc1ccc(Cl)c(Cl)c1`, under setting [1], the AC50 was 29.1 µM [falling, single point].

Regarding `COc1ccc(N=Cc2c(O)[nH]c3ccccc23)cc1OC`, under setting [1], the AC50 is 14.6 µM [falling, single point].

For the molecule `Cc1nc(N2CCN(C(=O)c3ccco3)CC2)nc2c1C(=O)CC(C)C2` (stereo unspecified), under setting [1], the AC50 is 6.31 µM [rising, single point].

For the molecule `CC(=O)c1c(C)[nH]c(C(=O)OCc2nnc(-c3ccccc3)o2)c1C`, the concentration at half-maximal activity (AC50) under setting [1] is 0.517 µM [rising, full curve, poor fit].

For `COc1ccc(-c2cc(C(=O)Nc3ccccc3F)on2)cc1`, under setting [1], the AC50 was 1.41 µM [falling, full curve].

Regarding `COC(=O)c1ccccc1NC(=O)c1cccc(NC(=O)c2ccc(Br)o2)c1C`, under setting [1], the AC50 is 0.082 µM [falling, full curve, poor fit].

In the case of `CCOC(=O)c1cc(-c2ccc(C)cc2)n(CCCC(=O)Nc2cc(C)ccc2C)c1`, the AC50 under setting [1] is 1.26 µM [rising, partial curve, poor fit].

In the case of `CCOc1ccccc1NC1=C(Cl)C(=O)N(c2ccc(OC)cc2)C1=O`, the AC50 under setting [1] was 23.1 µM [falling, single point].

Turning to `c1cnc2ccc(C(c3nnnn3C3CCCC3)N3CCN4CCCC4C3)cc2c1` (stereo unspecified), the AC50 under setting [1] is 0.2 µM [rising, full curve, poor fit].

As for `Fc1ccc(NC(=S)N/N=C/c2cccc(Br)c2)c(F)c1`, under setting [1], the AC50 was 0.164 µM [falling, full curve, poor fit].

With `Cc1ccc(-n2nnc(-c3nccn3C)n2)cc1`, the AC50 under setting [1] is 8.91 µM [falling, partial curve].

As to `COc1ccc(OCc2nn3c(-c4ccco4)nnc3s2)cc1`, under setting [1], the AC50 is 25.1 µM [falling, partial curve, poor fit].

For the molecule `O=C(CCN1CCCC1)c1cccs1`, the AC50 under setting [1] was 35.5 µM [rising, single point].

As for `C=CCn1c(SCC(=O)c2cc(C)n(C(C)COC)c2C)nc2sc(C)c(C)c2c1=O` (stereo unspecified), the AC50 under setting [1] was 16.4 µM [falling, single point].

With `Cc1ccc(-c2ccccc2)n1-c1cccc(C(=O)O)c1`, the AC50 under setting [1] is 35.5 µM [falling, single point].

As for `N#Cc1cc2c(nc1SCC(=O)O)CCCC2`, the AC50 under setting [1] is 1.64 µM [falling, full curve].

In the case of `Cc1ccc(C(=O)Nc2ccc(Nc3ccccc3)cc2)c(Cl)c1`, the AC50 under setting [1] is 22.4 µM [rising, single point].

For the molecule `CCn1c(=O)c(C(=O)CN(C)Cc2cccc(OC)c2OC)c(N)n(Cc2ccccc2)c1=O`, the AC50 under setting [1] is 5.62 µM [falling, single point].

Turning to `COc1ccc(C2/C(=C(/O)c3ccccc3)C(=O)C(=O)N2CCCN2CCOCC2)cc1` (stereo unspecified), under setting [1], the AC50 was 11.2 µM [rising, partial curve].

For `O=C(Cn1nc2ccccc2n1)N/N=C/c1cc([N+](=O)[O-])ccc1O`, under setting [1], the AC50 was 3.55 µM [falling, full curve, poor fit].

As to `COC(=O)c1c(-c2ccc3ccccc3c2)csc1NC(=O)Cc1ccc(OC)c(OC)c1`, the AC50 under setting [1] was 5.01 µM [falling, full curve].

On to `Cc1nc(C(=O)NNC(=O)c2cccc(Cl)c2)c(C(F)(F)F)o1`, for which the AC50 under setting [1] was 35.5 µM [falling, single point].

With `C/C(=N\NC(=O)c1ccc(C)cc1)c1c(C)[nH]n(-c2ccccc2)c1=O`, the AC50 under setting [1] was 6.31 µM [falling, full curve].

On to `Cc1nc(SCC(=O)Nc2ccccc2C(F)(F)F)c(C#N)c(C)c1CC(=O)c1ccc(Br)cc1`, for which the AC50 reads like this: under setting [1], 2.31 µM [falling, single point]; under setting [2], 4.11 µM [rising, partial curve, poor fit].

For `COc1ccc(CCC(=O)N2c3ccccc3CC2C)cc1` (stereo unspecified), the AC50 under setting [1] is 0.00461 µM [falling, full curve, poor fit].

`COc1ccc(O)c(C(=O)c2cnn(-c3ccccn3)c2)c1`: under setting [1], the AC50 was 3.16 µM [rising, partial curve, poor fit].

For `O=C(Oc1ccc(-c2ccccc2)cc1)N1CCOCC1`, the AC50 under setting [1] is 29.1 µM [falling, single point].

For `Cc1cc(=O)n2c(nc3ccccc32)[nH]1`, under setting [1], the AC50 is 8.2 µM [falling, partial curve, poor fit].

Turning to `CC1CN(C(=O)c2cc([N+](=O)[O-])cc([N+](=O)[O-])c2)CC(C)O1` (stereo unspecified), under setting [1], the AC50 was 4.47 µM [rising, single point].

On to `O=C(c1ccc(Cl)c(S(=O)(=O)N2CCCCC2)c1)N1CCCCCC1`, for which the AC50 under setting [1] was 3.98 µM [rising, full curve, poor fit].
